Experimental data: PubChem BioAssay AID720703 (Peter MacCallum Cancer Centre, 2013)
This is an unselected part of 714 reagents tested. Of all reagents, 50 (7%) were called active. 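Chosen pools sit at both extremes, so both low and high scores count as candidates; some pools appear more than once.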 No sequences are given here.

Aim: 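Kinase knock-down screen for links between AT1R and EGFR signalling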 (primary screen)
Cells: immortalised, SV40-transformed mammary epithelial cells from human, with stable expression of tagged AT1R
Reagents: siRNA pool against human genes, 40 nM siRNA pool per well
Time to read-out: 72 h from transfection to lysis and read-out
Challenge: angiotensin II stimulation (dose and duration not given); EGFR inhibitor AG1478 also listed
Detection: 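AlphaScreen bead assay of phosphorylated ERK1/2 in cell lysates, corrected for well confluency, converted to robust z-scores and averaged across two technical replicate plates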
Scale: phospho-ERK z-score: higher = more ERK phosphorylation after angiotensin II, relative to plate
Active means: 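Pools were ordered by robust z-score and 50 top-ranked pools, whether they raised or lowered the signal, were chosen for secondary testing; no numeric threshold was reported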
Calls: active = picked for secondary screen; inactive = not picked

Target gene,"phospho-ERK z-score, replicate mean",Outcome
MAPK15,-0.41,inactive
TRIB3,-0.84,inactive
IKBKE,-0.32,inactive
COQ8B,-0.46,inactive
LATS2,-0.01,inactive
SCYL1,0.58,inactive
STK26,0.23,inactive
MELK,-1.35,active
TYK2,0.29,inactive
PIP5K1C,-0.62,inactive
TEC,0.82,inactive
TTBK2,2.78,inactive
MAP4K3,-0.16,inactive
AURKB,0.48,inactive
TAF1,-0.12,inactive
PSKH1,-0.24,inactive
HIPK4,-0.46,inactive
MARK2,-0.03,inactive
NPR2,-0.2,inactive
MAP3K1,0.1,inactive
TAOK2,1.15,inactive
LIMK1,-0.28,inactive
TSSK2,0.49,inactive
PRKG1,2.98,active
CERK,-0.38,inactive
IRAK2,1.38,inactive
NLK,1.67,inactive
DDR1,0.4,inactive
ATM,-0.94,inactive
PANK2,-1.23,inactive
TAOK1,-0.22,inactive
MAP3K7,0.96,inactive
KIT,-0.38,inactive
RPS6KA2,-0.24,inactive
CHKB,-0.91,inactive
IGF2R,1.56,inactive
UCK2,0.99,inactive
BCR,-0.58,inactive
ALPK1,0.59,inactive
RIOK1,0.22,inactive
MAP2K1,-0.82,inactive
SBK1,0.59,inactive
PNKP,-0.1,inactive
BMPR2,0.58,inactive
DLG3,-0.15,inactive
GRK5,0.62,inactive
RBKS,0.72,inactive
CKS2,0.2,inactive
CAMKV,-0.37,inactive
TWF1,-0.77,inactive
FLT1,0.65,inactive
LTK,-0.66,inactive
RIOK3,-0.48,inactive
CDK10,0.09,inactive
CDK6,0.86,inactive
ANKK1,0.84,inactive
CSNK1A1L,-0.66,inactive
STK38,-0.3,inactive
STK31,0.12,inactive
PRKCB,0.46,inactive
CSNK2A1,0.92,inactive
PDIK1L,-0.74,inactive
SRP72,-0.26,inactive
THNSL1,0.42,inactive
TSSK3,1,inactive
YES1,1.24,inactive
ATP23,-0.54,inactive
MKNK1,0.16,inactive
EIF2AK3,0.23,inactive
NUP62,0.94,inactive
CDK4,-0.42,inactive
BRD2,-0.51,inactive
MAP3K20,1.82,inactive
NME7,-0.29,inactive
STK17B,0.35,inactive
PRKCH,-1.19,active
PLK2,-0.07,inactive
PRKAG2,1.49,inactive
MAPK4,1.14,inactive
MAPK9,-0.97,inactive
GRK3,0.01,inactive
CRKL,4.2,active
RIPK1,0.64,inactive
MARK4,-0.05,inactive
SYK,1.64,inactive
HUNK,1.28,inactive
BUB1B,0.07,inactive
MAP3K2,-0.8,inactive
PDPK1,-0.18,inactive
NME6,-0.75,inactive
CALM2,-0.4,inactive
DCK,-0.23,inactive
CDKL2,0.85,inactive
BRD4,1.71,inactive
BMP2K,0.6,inactive
CLK3,-0.02,inactive
DGKG,0.05,inactive
NME4,0.14,inactive
MOS,0.02,inactive
GUCY2D,1.18,inactive
ADK,-0.16,inactive
SMG1,1.46,inactive
OBSCN,0.51,inactive
CILK1,1.1,inactive
NEK3,2.71,inactive
CAMK4,0.38,inactive
WNK3,-0.22,inactive
PI4KB,-0.19,inactive
TAF1L,1.58,inactive
GALK2,-0.3,inactive

Part of the list above, set out differently.
{"Target gene":"GUCY2D","phospho-ERK z-score, replicate mean":1.18,"Outcome":"inactive"}
{"Target gene":"ADK","phospho-ERK z-score, replicate mean":-0.16,"Outcome":"inactive"}
{"Target gene":"SMG1","phospho-ERK z-score, replicate mean":1.46,"Outcome":"inactive"}
{"Target gene":"OBSCN","phospho-ERK z-score, replicate mean":0.51,"Outcome":"inactive"}
{"Target gene":"CILK1","phospho-ERK z-score, replicate mean":1.1,"Outcome":"inactive"}
{"Target gene":"NEK3","phospho-ERK z-score, replicate mean":2.71,"Outcome":"inactive"}
{"Target gene":"CAMK4","phospho-ERK z-score, replicate mean":0.38,"Outcome":"inactive"}
{"Target gene":"WNK3","phospho-ERK z-score, replicate mean":-0.22,"Outcome":"inactive"}
